Laboratory results from US20200399318A1 (priority 2016, published 2020).

Assay: general procedure: Fmoc solid-phase peptide synthesis; NovaPEG Rink Amide resin; HBTU/HOBt/DIPEA
Settings: whole synthesis, masses verified by MALDI-TOF, scale of the general procedure 25 μmole

Substance: Ac-DYDYPGDYSYLY
- final LC-MS purity: >95%

Substance: Ac-DYDYPGDYSYLYGTCG
- final LC-MS purity: >95%

Substance: Ac-DYLYGTCG
- final LC-MS purity: >95%

Substance: PEPTIDE1{[CH2CO].[dY].D.Y.P.G.D.H.C.Y.L.Y.G.T.C.G.[am]}$PEPTIDE1,PEPTIDE1,1:R3-9:R3$$$V2.0
- final LC-MS purity: >90%

Substance: PEPTIDE1{[CH2CO].[dY].D.Y.P.G.D.Y.C.Y.L.Y.G.T.[am]}$PEPTIDE1,PEPTIDE1,1:R3-9:R3$$$V2.0
- final LC-MS purity: >95%

Substance: PEPTIDE1{[CH2CO].[dY].D.Y.P.G.D.Y.C.Y.L.Y.G.[am]}$PEPTIDE1,PEPTIDE1,1:R3-9:R3$$$V2.0
- final LC-MS purity: >95%

Substance: PEPTIDE1{[CH2CO].[dY].D.Y.P.G.D.Y.C.Y.L.[am]}$PEPTIDE1,PEPTIDE1,1:R3-9:R3$$$V2.0
- final LC-MS purity: >90%

Substance: PEPTIDE1{[CH2CO].[dY].D.Y.P.G.D.Y.C.Y.[am]}$PEPTIDE1,PEPTIDE1,1:R3-9:R3$$$V2.0
- final LC-MS purity: >90%

HELM strings list residues between dots; [ac] is acetyl, [am] amide, other brackets name non-standard units.
